This is an account of results in publication PMC2169300.

Chains of the proteins cited; added tags and fusions are not shown.
UniProt Q60749, whole entry: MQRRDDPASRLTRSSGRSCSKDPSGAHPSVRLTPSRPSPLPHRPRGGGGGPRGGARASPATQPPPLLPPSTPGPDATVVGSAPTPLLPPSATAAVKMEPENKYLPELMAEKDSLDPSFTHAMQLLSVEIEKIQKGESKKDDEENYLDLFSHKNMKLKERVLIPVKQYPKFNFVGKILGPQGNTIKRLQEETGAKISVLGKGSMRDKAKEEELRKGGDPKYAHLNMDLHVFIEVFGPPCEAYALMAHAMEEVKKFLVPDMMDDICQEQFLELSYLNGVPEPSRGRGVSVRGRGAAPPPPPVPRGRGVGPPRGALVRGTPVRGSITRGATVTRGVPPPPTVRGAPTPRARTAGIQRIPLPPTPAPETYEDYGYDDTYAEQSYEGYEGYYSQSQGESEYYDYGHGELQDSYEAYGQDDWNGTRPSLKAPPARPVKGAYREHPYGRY

Construct, isoform or probe ends are uncertain for at least one entry. A weaker result is weaker than the reference pair of the same experiment.

The data set has as its target His-Sam68, ERK-phosphorylated (mouse) (UniProt Q60749). Kind of data set: EMSA. Particulars: ERK-thiophosphorylated, pH and temperature not given, recombinant protein, protein details: His (pQE-32).

For “AUAGACAGAAUCAGCACCAGUGCUCAUGGAGAAAAUUGGACC [CD44 v5 exonic Sam68 site RNA]”, the binding result (25 and 50 ng protein) was “binds more weakly”.

Consider “GAAGAAGAGGAUUAUUAAAGACUAUUUGAUUAGA [CD44 intronic Sam68 site RNA (wt)]”, for which the binding result (175 and 250 ng protein) is listed as “binds more weakly”.
